Protein sequences, listed by entry. Tags and fused reporters are not part of them. Residues count along the entry.
UniProt Q8NI77, 1-374 limits assumed: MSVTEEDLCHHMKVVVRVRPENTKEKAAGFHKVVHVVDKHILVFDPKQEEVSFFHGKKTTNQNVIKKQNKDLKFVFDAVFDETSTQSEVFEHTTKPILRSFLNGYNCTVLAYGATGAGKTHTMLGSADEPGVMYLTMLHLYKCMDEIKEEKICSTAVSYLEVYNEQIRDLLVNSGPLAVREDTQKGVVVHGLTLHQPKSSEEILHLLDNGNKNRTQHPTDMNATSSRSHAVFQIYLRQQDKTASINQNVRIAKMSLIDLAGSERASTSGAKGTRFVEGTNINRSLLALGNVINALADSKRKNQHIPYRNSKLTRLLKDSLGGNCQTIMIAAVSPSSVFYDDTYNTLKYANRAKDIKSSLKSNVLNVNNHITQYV

According to patent US20230382889A1 (Volastra Therapeutics, Inc., priority 2022, published 2023):

Target: hKIF18A (1-374) (Homo sapiens (Human), UniProt Q8NI77)
Experiment: Inhibition of KIF18A microtubule-dependent ATPase activity (ADP-Glo)
Type: biochemical
Details: 4 nM hKIF18A (1-374)

## O=S(=O)(CCO)Nc1ccc(-n2cc(-c3csc(N4CCC(F)(F)CC4)n3)nn2)c(N2CCC3(CC2)CC3)c1 [Compound 69, N-(4-(4-(2-(4,4-difluoropiperidin-1-yl)thiazol-4-yl)-1H-1,2,3-triazol-1-yl)-3-(6-azaspiro[2.5]octan-6-yl)phenyl)-2-hydroxyethane-1-sulfonamide]
  IC50: 12 nM

The match of structure and compound is tentative.
